# Screening data, single-dose tests

Amino acid sequences for entries named in this document (tags omitted). Residues count along the entry.
UniProt P9WNZ1, whole entry: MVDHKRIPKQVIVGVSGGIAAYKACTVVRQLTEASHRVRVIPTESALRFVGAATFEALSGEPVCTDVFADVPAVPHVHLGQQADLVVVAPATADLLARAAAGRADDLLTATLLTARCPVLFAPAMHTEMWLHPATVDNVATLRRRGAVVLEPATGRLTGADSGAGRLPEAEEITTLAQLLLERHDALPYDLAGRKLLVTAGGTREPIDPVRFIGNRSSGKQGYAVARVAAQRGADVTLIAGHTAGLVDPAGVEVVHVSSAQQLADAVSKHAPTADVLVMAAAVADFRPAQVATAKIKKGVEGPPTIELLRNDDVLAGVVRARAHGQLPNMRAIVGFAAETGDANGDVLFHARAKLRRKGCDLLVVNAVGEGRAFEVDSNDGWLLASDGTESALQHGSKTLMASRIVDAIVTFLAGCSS
UniProt P9WFT3, whole entry: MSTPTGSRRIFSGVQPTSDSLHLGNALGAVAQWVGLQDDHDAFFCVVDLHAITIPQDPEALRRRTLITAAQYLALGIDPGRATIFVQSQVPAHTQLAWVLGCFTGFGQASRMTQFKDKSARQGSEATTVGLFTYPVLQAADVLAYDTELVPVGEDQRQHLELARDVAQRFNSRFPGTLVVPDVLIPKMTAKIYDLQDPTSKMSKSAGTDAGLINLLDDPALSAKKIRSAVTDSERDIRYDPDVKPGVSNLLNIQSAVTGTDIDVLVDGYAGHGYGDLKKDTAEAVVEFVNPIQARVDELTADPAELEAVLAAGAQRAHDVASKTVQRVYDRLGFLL
UniProt P9WPC5, whole entry: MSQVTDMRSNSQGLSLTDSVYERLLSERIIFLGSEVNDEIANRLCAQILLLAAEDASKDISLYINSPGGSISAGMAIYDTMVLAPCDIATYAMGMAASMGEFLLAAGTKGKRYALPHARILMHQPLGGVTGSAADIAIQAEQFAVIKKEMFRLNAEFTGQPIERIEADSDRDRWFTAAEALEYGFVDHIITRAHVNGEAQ
UniProt P9WPC3, whole entry partner: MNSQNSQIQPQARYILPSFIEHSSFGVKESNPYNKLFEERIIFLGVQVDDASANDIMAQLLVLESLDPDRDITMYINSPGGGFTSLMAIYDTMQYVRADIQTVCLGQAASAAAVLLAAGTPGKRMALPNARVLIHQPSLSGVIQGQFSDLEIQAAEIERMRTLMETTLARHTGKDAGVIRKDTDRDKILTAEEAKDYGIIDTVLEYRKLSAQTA
UniProt A4I591, 1-473: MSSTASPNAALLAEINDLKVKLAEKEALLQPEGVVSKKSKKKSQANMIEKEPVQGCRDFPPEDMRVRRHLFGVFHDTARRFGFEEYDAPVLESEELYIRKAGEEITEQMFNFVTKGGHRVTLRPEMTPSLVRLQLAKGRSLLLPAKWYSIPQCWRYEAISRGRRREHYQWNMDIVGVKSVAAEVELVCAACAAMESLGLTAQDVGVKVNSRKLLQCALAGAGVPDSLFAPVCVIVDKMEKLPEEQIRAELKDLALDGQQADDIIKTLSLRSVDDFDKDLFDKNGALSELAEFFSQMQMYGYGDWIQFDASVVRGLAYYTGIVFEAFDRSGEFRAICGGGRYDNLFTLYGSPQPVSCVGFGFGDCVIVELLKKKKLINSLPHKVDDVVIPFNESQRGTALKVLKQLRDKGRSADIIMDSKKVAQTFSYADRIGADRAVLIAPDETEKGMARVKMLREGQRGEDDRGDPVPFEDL
UniProt Q4DA54, 1-478: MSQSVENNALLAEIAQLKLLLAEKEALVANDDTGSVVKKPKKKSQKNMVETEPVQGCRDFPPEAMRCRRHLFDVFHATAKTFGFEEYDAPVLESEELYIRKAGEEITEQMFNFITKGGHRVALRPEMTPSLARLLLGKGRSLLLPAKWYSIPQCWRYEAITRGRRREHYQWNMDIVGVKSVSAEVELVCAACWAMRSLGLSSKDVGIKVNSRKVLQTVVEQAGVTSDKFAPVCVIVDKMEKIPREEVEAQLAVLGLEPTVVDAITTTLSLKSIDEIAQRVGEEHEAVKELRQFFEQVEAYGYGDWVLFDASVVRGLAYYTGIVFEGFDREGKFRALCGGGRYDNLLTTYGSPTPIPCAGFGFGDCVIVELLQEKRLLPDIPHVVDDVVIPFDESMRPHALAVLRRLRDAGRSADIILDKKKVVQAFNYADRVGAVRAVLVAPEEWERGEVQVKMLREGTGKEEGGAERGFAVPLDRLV

Measurements from “University of Dundee, Small-Polar-MMV Screening Library” (2021), ChEMBL document CHEMBL3988442.

CoaBC: 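Enzyme assay of CoaBC with a phosphate dye (Biomol Green) read at 650 nm. Target: Coenzyme A biosynthesis protein CoaBC, Mycobacterium tuberculosis (UniProt P9WNZ1). Concentration: 30 µM. Direction is inferred from only a few compounds that gave an IC50; most scored high, so higher reads as stronger inhibition. Most strong results did not repeat in a second test. Size under these conditions: about 67,000 compounds, about 40 of them at 50% or above in at least one test.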
MtTrpRS: 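Tryptophan-tRNA ligase, Mycobacterium tuberculosis (UniProt P9WFT3). Enzyme assay of tryptophanyl-tRNA synthetase; the read-out is not stated. Compounds at 10 µM. Direction is not recorded; retested compounds ran higher, which suggests that high means inhibition. About 65,000 compounds were tested under these conditions; 0.098% (about 64) showed 50% or more at least once.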
ClpP1P2: 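Protease assay of ClpP1P2, read by the AMC dye that it sets free. Target: ClpP1P2, Mycobacterium tuberculosis (UniProt P9WPC5 and UniProt P9WPC3). Concentration: 50 µM. Direction is inferred from only a few compounds that gave an IC50; most scored high, so higher reads as stronger inhibition. Most other retested compounds had strongly negative values. Of about 69,000 compounds tested this way, about 10 (0.015%) reached 50% or more in at least one test.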
LiHisRS: 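Enzyme assay of histidyl-tRNA synthetase; the read-out is not stated. Target: Histidine-tRNA ligase, Leishmania infantum (UniProt A4I591). Compounds at 30 µM. The record gives no direction; compounds that gave an IC50 in retests scored well above the rest, so higher reads as stronger inhibition. The assay is labelled LdHisRS but filed under L. infantum. Of about 69,000 compounds tested this way, about 410 (0.6%) reached 50% or more in at least one test.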
TcHisRS: 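Enzyme assay of histidyl-tRNA synthetase; the read-out is not stated. Target: Histidine-tRNA ligase, Trypanosoma cruzi CL Brener (UniProt Q4DA54). Compounds at 30 µM. Higher reads as stronger inhibition (inferred: compounds with an IC50 in retests scored well above the rest). Of about 69,000 compounds tested this way, about 31 (0.045%) reached 50% or more in at least one test.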

Values are the deposited “Percent Effect”, in %. How 0% and 100% were set is not recorded. Most values in the screen are low, and negative values occur. Compounds were drawn at random from those tested, without regard to their results. Two or more numbers in one place are separate tests of the same structure; such repeats can differ widely. A dash means the value is not listed here; it may have been measured.

compound | CoaBC | MtTrpRS | ClpP1P2 | LiHisRS | TcHisRS
Cc1csc(CN2CCC(C(=O)O)(n3ccc(-c4ccco4)n3)CC2)n1 | 27.32 & 20.52 | 6.419 | -1.779 | 15.96 | 12.06
CSCCNC(=O)C1CCC(=O)N(C2CCCC2)C1 (stereo unspecified) | -3.024 | -6.054 | -5.886 | 6.061 | 6.522
O=C(CCc1ccco1)N1CCc2[nH]nc(COc3ccccc3)c2C1 | -1.456 | -1.728 | 24.53 | 16.67 | 19.8
Cc1nc(-c2cccs2)ccc1C(=O)N1CCN(CCO)CC1 | -3.629 | 2.599 | 3.464 | 5.263 | 8.38
CC(=O)N(Cc1ncc(C)o1)C1CCN(Cc2ccccc2F)C1 (stereo unspecified) | 3.133 | -8.15 | -43.01 | 23.89 | 11.95
CCCc1n[nH]c(C2CN(C(=O)Cn3ccccc3=O)CCO2)n1 (stereo unspecified) | 14.29 | -2.224 | -1.551 | 10.53 | 3.725
Cc1cc(S(=O)(=O)N2CCOCC2C#N)ccc1F (stereo unspecified) | 8.73 | 7.751 | -1.661 | 9.821 | -1.724
Cc1nc(C(=O)N2CCN(S(C)(=O)=O)CC2)c(-c2ccccc2Cl)s1 | 1.772 | 4.022 | -5.05 | 5.263 | -8.537
Cn1ncc(N2CCC(CNC(=O)[C@@H](N)C3CCCCC3)CC2)cc1=O | 1.091 | -1.347 | -9.412 | 11.29 | 1.02
CCOc1ncccc1Cn1cc(-c2ccc(CO)o2)nn1 | - | -0.4128 | 1.161 | 10.83 | 6.579
CN1CC(c2ccccc2)CC12CCN(C(=O)c1ccc(Cl)cc1)CC2 (stereo unspecified) | 7.143 | -0.729 | -4.465 | 16.67 | 3.061
Brc1cccc(-c2nnc(CNCCn3cccn3)o2)c1 | -12.86 | -4.241 | -20.48 | 6.78 | 4
CCNc1ncc(C(=O)NC2CCOCC2)cn1 | 1.72 | -1.667 | -12.91 | 6.452 | 1.235
Cc1nc(CN2CCN(C(=O)COc3c(C)ccc(C)c3C)CC2)no1 | -6.867 | -3.606 | -0.1162 | 9.836 | -1.163
CN1CCC(NC(=O)Nc2ccc(Br)c(F)c2)C1=O (stereo unspecified) | -0.2415 | -3.091 | 8.865 | 9.091 | 12.26
CCc1nc(CC(=O)N2CCn3c(nnc3C(C)C)C2)cs1 | -1.596 | -2.83 | 3.391 | -0.8 | -0.3802
O=C1CC(c2cccnc2)C2(CCN(C(=O)N3CCOCC3)CC2)N1 (stereo unspecified) | 0.2538 | -6.008 | -6.836 | 14.71 | 3.941
CC(=O)Nc1ccc(CN2CCc3[nH]cnc3C2c2ccc(C)o2)cc1 (stereo unspecified) | 4.274 | -2.355 | -22.72 | 11.97 | 2.703
COc1cc(OC)cc(N2CCC(NC(=O)c3cccn3C)CC2)c1 | 0.3745 | -0.4691 | -6.748 | 8.264 | 6.122
Cc1csc(NC(=O)C2CSCCC(=O)N2)n1 (stereo unspecified) | 6.131 | -5.699 | -1.008 | 15.65 | 1.031
O=S1(=O)CCN(c2nc(C3CC3)ns2)CC1 | -1.956 | 0.5482 | -7.411 | 16.13 | 11.34
CC(C)c1cnc(N2C[C@H](CO)C[C@H](CN3CCOCC3)C2)nc1 | 8.182 | -4.164 | -0.4634 | 5.479 | 3.784
Cc1nc(CNc2ccc(C(=O)NCc3ccco3)cc2C)no1 | 5.835 | 3.561 | 4.127 | 11.11 | 3.03
CN1CC(=O)N(c2cccnc2)Cc2c(NC3CC3)ncnc21 | 5.263 | -5.272 | 2.609 | 6.897 | 0.5917
N#Cc1ccc(CN2CCCC3(Cc4ccccc4CNC3=O)C2)cc1 (stereo unspecified) | 3.421 | -4.927 | 19.41 | 13.79 | -24.26
Cc1csc(CCNC(=O)N2CCC(C(N)=O)CC2)n1 | 4.968 | 0.1022 | 13.23 | 13.47 | 0.5525
Cc1ccc(S(=O)(=O)NC2=NCN(CCc3cccs3)CN2)cc1 | -1.768 | -3.431 | 4.848 | 10.53 | 0.5848
O=c1ccc2c([nH]1)CCC(NCc1ccncc1)C2 (stereo unspecified) | -9.136 | 1.543 | 10.08 | -4.167 | 7.477
CCOC(=O)N1CCN(C(=O)C2CC(=O)N(c3ccccc3Br)C2)CC1 (stereo unspecified) | 3.121 | 0.1564 | -9.265 | 4.959 | 2.041
COC(=O)CC(NC(=O)c1ccccc1OC)c1cccs1 (stereo unspecified) | 3.181 | 7.923 | 23.28 | -6.087 | -3.944
CS(=O)(=O)N1CCN(c2ccc3ccc(C(=O)NC4CC4)cn23)CC1 | 10.17 | -10.32 | 17.68 | 32.69 | 52.43
Cc1ccccc1-c1cncc(C2CCN(S(=O)(=O)N(C)C)CC2)n1 | -0.2451 | - | 0.6529 | 9.375 | 4.255
CCN(CC(F)(F)F)C(=O)C1CCCN(Cc2nc(C)c(C)o2)C1 (stereo unspecified) | -3.659 | 1.698 | -4.202 | 11.67 | 5.195
CC1(NC(=O)Cc2cccs2)CCS(=O)(=O)C1 (stereo unspecified) | 5.25 | 0.7712 | 7.613 | 22.22 | 0.6135

2 of the entries, repeated:

| compound | CoaBC | MtTrpRS | ClpP1P2 | LiHisRS | TcHisRS |
|---|---|---|---|---|---|
| `CN1CCC(NC(=O)Nc2ccc(Br)c(F)c2)C1=O` (stereo unspecified) | -0.2415 | -3.091 | 8.865 | 9.091 | 12.26 |
| `Cc1csc(CN2CCC(C(=O)O)(n3ccc(-c4ccco4)n3)CC2)n1` | 27.32 & 20.52 | 6.419 | -1.779 | 15.96 | 12.06 |